Results as given in article PMC11283536.
These are yes or no findings as the source states them, for the method shown. Binding seen in cells or lysates may run through a third protein. Some entries that bind do so weakly or less than the wild type. Where a sequence is shown, tags or fusion partners need not be part of it.

Molecular target: T1, carbohydrate-responsive element-binding protein (ChREBP) (mouse (endogenous in MIN6)) (UniProt Q99MZ3)
T1 sequence: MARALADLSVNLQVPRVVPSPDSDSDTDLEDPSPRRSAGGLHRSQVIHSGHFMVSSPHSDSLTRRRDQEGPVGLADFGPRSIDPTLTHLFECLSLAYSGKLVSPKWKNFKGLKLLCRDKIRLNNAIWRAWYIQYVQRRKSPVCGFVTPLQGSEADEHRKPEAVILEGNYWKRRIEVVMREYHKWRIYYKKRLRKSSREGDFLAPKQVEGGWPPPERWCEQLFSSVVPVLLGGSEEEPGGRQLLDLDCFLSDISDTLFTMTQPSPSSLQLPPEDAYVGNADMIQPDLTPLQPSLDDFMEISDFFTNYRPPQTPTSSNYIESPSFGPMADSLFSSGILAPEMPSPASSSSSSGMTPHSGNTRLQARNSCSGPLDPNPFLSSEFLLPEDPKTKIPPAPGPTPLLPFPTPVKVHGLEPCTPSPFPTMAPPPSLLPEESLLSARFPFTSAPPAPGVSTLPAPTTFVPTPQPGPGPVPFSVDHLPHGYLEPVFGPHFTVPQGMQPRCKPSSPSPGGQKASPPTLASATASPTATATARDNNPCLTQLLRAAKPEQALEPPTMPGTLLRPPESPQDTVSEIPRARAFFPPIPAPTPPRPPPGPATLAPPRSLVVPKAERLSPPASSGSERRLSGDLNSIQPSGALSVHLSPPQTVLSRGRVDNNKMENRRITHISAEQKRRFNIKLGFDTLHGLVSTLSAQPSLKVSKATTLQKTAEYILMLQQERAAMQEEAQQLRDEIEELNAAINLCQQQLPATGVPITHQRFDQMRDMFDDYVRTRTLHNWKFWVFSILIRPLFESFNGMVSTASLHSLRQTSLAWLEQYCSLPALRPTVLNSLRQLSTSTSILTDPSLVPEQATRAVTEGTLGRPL
Assay: co-IP; MIN6 cells lysed in RIPA buffer; ChREBP antibody or SCGN antibody added overnight at 4 °C, then protein A/G beads for 3-5 h; three washes with lysis buffer; western blot; cells untreated (normal) or treated with ox-LDL

binding: binds
B1: Secretagogin (SCGN) (protein, UniProt Q91WD9 1-276)
chain: MDNARRKTPARLDAACFWQIWQRFDKEEKGYIRETELDAFFDHLLAKSGTEDTLMEENVQKVKEQLMTSHNVSKEGRILMKELASMFLSEDENFLLFFRLETPLDNSVEFMQIWRKYDADSSGFISAAELCNFLRDLFLHHKKNISEAELEEYTSTMMKIFDKNKDGRLDLNDLARILALQENFLLQFKMDASSTEERKRDFEKIFAHYDVSKTGALEGPEVDGFVKDMMELVQPSISGVDLDKFREILLRHCDVNKDGKIQKSELALCLGLKINP
